Measurements reported in the supplement of paper PMC9226226.
“And” between values parts separate entries of the source, which are not always exact repeats. Equal values may be shown once. ± gives the standard deviation of the averaged measurements. The list shows a part of the results. Some well-known active drugs show little effect in this data set, so a weak value is uncertain.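 The cells are human mesenchymal stem cells that lack the Werner syndrome gene and age prematurely. Growth was tracked by automated live-cell imaging in three biological repeats, and the twenty drugs that most raised growth over vehicle were taken forward, with no fixed cutoff stated.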 Peptide text beside a SMILES is read from it.

System: Werner syndrome hMSCs (WRN-/-)
Assay: relative cell density (fold change vs vehicle control); higher = more proliferation (geroprotective)
Details: concentration (umol/L): 1, 6 days

SMILES	relative cell density (vehicle: DMSO)	relative cell density (vehicle: Water)
CC(NCCc1ccc(O)cc1)C(O)c1ccc(O)cc1 (configuration not stated)	1.31	
CCC(C)C1OC2(CCC1C)CC1CC(CC=C(C)C(OC3CC(OC)C(OC4CC(OC)C(O)C(C)O4)C(C)O3)C(C)C=CC=C3COC4C(O)C(C)=CC(C(=O)O1)C34O)O2 (configuration not stated)	1.04	
NC[C@@H]1O[C@H](O[C@H]2[C@@H](O)[C@H](O[C@@H]3[C@@H](O)[C@H](N)C[C@H](N)[C@H]3O[C@H]3O[C@H](CN)[C@@H](O)[C@H](O)[C@H]3N)O[C@@H]2CO)[C@H](N)[C@@H](O)[C@@H]1O		0.96
CCC1(C)CC(=O)NC1=O (configuration not stated)	1.07	
C[C@H](Nc1ncnc2nc[nH]c12)c1cc2cccc(Cl)c2c(=O)n1-c1ccccc1	1.27	
O=S(=O)(c1cccc2cnccc12)N1CCCNCC1	0.991	
O=C(c1ccc(F)c(F)c1Nc1ccc(I)cc1F)N1CC(O)([C@@H]2CCCCN2)C1	0.557	
CCOC(=O)CC(=O)N1CCSC1COc1ccccc1OC (configuration not stated)	0.851	
CC(=O)Oc1ccc(C(c2ccc(OC(C)=O)cc2)c2ccccn2)cc1	0.21	
CCC(C)(C)C(=O)O[C@H]1C[C@@H](C)C=C2C=C[C@H](C)[C@H](CC[C@@H]3C[C@@H](O)CC(=O)O3)[C@H]21	0.404	
CCNC1(C(N)=O)CCN(c2ncnc3c2nc(-c2ccccc2Cl)n3-c2ccc(Cl)cc2)CC1		1.11
CCCc1nn(C)c2c(=O)[nH]c(-c3cc(S(=O)(=O)N4CCN(C)CC4)ccc3OCC)nc12	1.37 and 0.994	0.912
O=[N+]([O-])c1ccc(O)c2ncccc12	1.09	
N#CC[C@H](C1CCCC1)n1cc(-c2ncnc3[nH]ccc23)cn1	0.989 and 0.93	
CN(Cc1cc(Br)cc(Br)c1N)C1CCCCC1	1.37	
C[C@H](CS)C(=O)N1CCC[C@H]1C(=O)O	1.21	
Cn1cnc2c(F)c(Nc3ccc(Br)cc3Cl)c(C(=O)NOCCO)cc21	1.03	
NCCc1ccc(O)c(O)c1	1.1	
OC[C@@H](O)CN1CCN(c2ccccc2)CC1	0.69	
N#CC1(c2ccc(NC(=O)c3cccnc3NCc3ccncc3)cc2)CCCC1	0.837	
Cc1c(Nc2ncccc2C(=O)O)cccc1C(F)(F)F	1.13	
CC[C@H](c1ccc(O)cc1)[C@@H](CC)c1ccc(O)cc1	0.972	

Some of the entries above, set out differently:
SMILES,relative cell density (vehicle: DMSO),relative cell density (vehicle: Water)
CCNC1(C(N)=O)CCN(c2ncnc3c2nc(-c2ccccc2Cl)n3-c2ccc(Cl)cc2)CC1,,1.11
CCCc1nn(C)c2c(=O)[nH]c(-c3cc(S(=O)(=O)N4CCN(C)CC4)ccc3OCC)nc12,1.37 and 0.994,0.912
O=[N+]([O-])c1ccc(O)c2ncccc12,1.09,

Further structures:

SMILES	relative cell density (vehicle: DMSO)	relative cell density (vehicle: Water)
COC(=O)N[C@H](C(=O)N1CC2(CC2)C[C@H]1c1nc(-c2ccc3c(c2)C(F)(F)c2cc(-c4ccc5[nH]c([C@@H]6[C@H]7CC[C@H](C7)N6C(=O)[C@@H](NC(=O)OC)C(C)C)nc5c4)ccc2-3)c[nH]1)C(C)C	0.846	
COc1ccc(CNc2nc(N3CCC[C@H]3CO)ncc2C(=O)NCc2ncccn2)cc1Cl	0.753	
CC(=O)OCC(=O)[C@@]1(O)CC[C@H]2[C@@H]3CCC4=CC(=O)C=C[C@]4(C)[C@H]3[C@@H](O)C[C@@]21C	1.12	
Cn1nnc2c(C(N)=O)ncn2c1=O	1.24	
CC(C)(C)CC(C)(C)c1ccc(OCCOCC[N+](C)(C)Cc2ccccc2)cc1	1.15	
CCCCOc1ccc(C(=O)CCN2CCCCC2)cc1	0.956	
Nc1nc(N)c2nc(-c3ccccc3)c(N)nc2n1	0.991	
C=C1CC[C@H](O)C/C1=C/C=C1\CCC[C@]2(C)[C@@H]([C@H](C)/C=C/[C@H](C)C(C)C)CC[C@@H]12	0.748	
CC(C)(C)NC(=O)[C@H]1CC[C@H]2[C@@H]3CC[C@H]4NC(=O)C=C[C@]4(C)[C@H]3CC[C@]12C	1.04	
C=CC[N+]1([C@H]2C[C@H]3[C@@H]4CC[C@H]5C[C@H](O)[C@@H](N6CCOCC6)C[C@]5(C)[C@H]4CC[C@]3(C)[C@H]2OC(C)=O)CCCC1	1.08	
CCS(=O)(=O)N1CCN(c2ccc(Nc3ncc(C(N)=O)c(NC4CC4)n3)cc2)CC1	0.934	
CC(C)C(=O)c1c(C(C)C)nn2ccccc12	0.867	
CC(=O)NC(CC(C)C)C(=O)O (configuration not stated)	1.28	
CC(C)c1nc(CN(C)C(=O)N[C@@H](CCN2CCOCC2)C(=O)N[C@H](CC[C@H](Cc2ccccc2)NC(=O)OCc2cncs2)Cc2ccccc2)cs1	1.03	
Cc1cccc(-c2nn3c(c2-c2ccnc4ccc(C(N)=O)cc24)CCC3)n1	0.982	
CC12CC3CC(C)(C1)CC(N)(C3)C2	1.1	
CN1C(C(=O)Nc2ccccn2)=C(O)c2sc(Cl)cc2S1(=O)=O		0.933
CCC[C@@H]1C[C@@H](C(=O)N[C@@H]([C@H]2O[C@H](SC)[C@H](O)[C@@H](O)[C@H]2O)[C@@H](C)O)N(C)C1	1.05	
CN1CCCN=C1/C=C/c1cccs1	1.25	
CO[C@H]1C[C@@H]2CC[C@@H](C)[C@@](O)(O2)C(=O)C(=O)N2CCCC[C@H]2C(=O)O[C@H]([C@H](C)C[C@@H]2CC[C@@H](OC(=O)C(C)(CO)CO)[C@H](OC)C2)CC(=O)[C@H](C)/C=C(\C)[C@@H](O)[C@@H](OC)C(=O)[C@H](C)C[C@H](C)/C=C/C=C/C=C/1C	0.557	
O=c1cc[nH]c(=O)[nH]1	1.42	
O=C(O)CCCN1CCC(O[C@@H](c2ccc(Cl)cc2)c2ccccn2)CC1	1.15	

SMILES	relative cell density (vehicle: DMSO)	relative cell density (vehicle: Water)
C[C@H]1C[C@H]2[C@@H]3CCC4=CC(=O)C=C[C@]4(C)[C@H]3C(=O)C[C@]2(C)[C@@]1(O)C(=O)CO	1.11	
CCC(=O)OCC(=O)[C@@]1(OC(=O)CC)[C@@H](C)C[C@H]2[C@@H]3CCC4=CC(=O)C=C[C@]4(C)[C@@]3(F)[C@@H](O)C[C@@]21C	1.27	
NNC(=O)c1ccncc1	1.36	
CCN1CCCC1CNC(=O)c1cc(S(N)(=O)=O)ccc1OC (configuration not stated)	1.32	
COc1ccc(-c2ccc3cc(C(=O)O)ccc3c2)cc1C12CC3CC(CC(C3)C1)C2	0.586	
CN1CCN(c2ccc3nc(-c4c(N)c5c(F)cccc5[nH]c4=O)[nH]c3c2)CC1	0.384 and 0.369	
O=c1[nH]c(=O)n([C@H]2C[C@H](O)[C@@H](CO)O2)cc1I	1.26	
Cc1cccc(N(C)C(=S)Oc2ccc3ccccc3c2)c1	1.18	
C=CCNC1=C2C[C@@H](C)C[C@H](OC)[C@H](O)[C@@H](C)/C=C(\C)[C@H](OC(N)=O)[C@@H](OC)/C=C\C=C(/C)C(=O)NC(=CC1=O)C2=O	0.345	
O=C(O)c1cccnc1	1.05	
CCCCc1oc2ccccc2c1C(=O)c1cc(I)c(OCCN(CC)CC)c(I)c1	1.54	
COC(=O)[C@H](Cc1ccccc1)NC(=O)[C@@H](N)CC(=O)O (H-Asp-Phe-OMe)	1.09	
NC(=O)C1CCCc2c1[nH]c1ccc(Cl)cc21 (configuration not stated)	1.32	
CO/N=C(\C(=O)N[C@@H]1C(=O)N2C(C(=O)O)=C(COC(C)=O)CS[C@H]12)c1csc(N)n1	1.32	
C[C@]12CC[C@@H]3c4ccc(O)cc4C[C@@H](CCCCCCCCC[S+]([O-])CCCC(F)(F)C(F)(F)F)[C@H]3[C@@H]1CC[C@@H]2O (some centres not stated)	1.13	
CNC(=O)[C@@H](NC(=O)[C@H](CC(C)C)[C@H](O)C(=O)NO)C(C)(C)C	0.928	
Cc1cc(Nc2cc(N3CCN(C)CC3)nc(Sc3ccc(NC(=O)C4CC4)cc3)n2)n[nH]1	0.717	
Clc1ccc2nsnc2c1NC1=NCCN1	0.912	
CC(=O)Nc1nnc(S(N)(=O)=O)s1	1.23	
CC(C)Oc1ccc2c(=O)c(-c3ccccc3)coc2c1	1.36	
C[N+](C)(C)CC(O)CC(=O)[O-] (configuration not stated)	1.23 and 1.41	
N#C/C(=C1/SC[C@@H](c2ccc(Cl)cc2Cl)S1)n1ccnc1	1.12	

SMILES	relative cell density (vehicle: DMSO)	relative cell density (vehicle: Water)
O=C1O[C@H]([C@@H](O)CO)C([O-])=C1O.[Na+]		0.887
CCCCOc1cc(C(=O)OCCN(CC)CC)ccc1N	1.13	
NC[C@H](O)c1ccc(O)c(O)c1	1.21	
CCN(CC)CCNC(=O)c1ccc(N)cc1	1.3	
CCc1cc2c(cc1CC)CC(NC[C@H](O)c1ccc(O)c3[nH]c(=O)ccc13)C2	1.54	
Cc1c(-c2ccc(O)cc2)n(Cc2ccc(OCCN3CCCCCC3)cc2)c2ccc(O)cc12	1.29 and 1.1	
C=C[C@]1(C)C[C@@H](OC(=O)CSC(C)(C)CNC(=O)[C@H](N)C(C)C)[C@]2(C)[C@H](C)CC[C@]3(CCC(=O)[C@H]32)[C@@H](C)[C@@H]1O	1.08	
O=C(O)C1=C(CSc2nnnn2CS(=O)(=O)O)CS[C@@H]2[C@H](NC(=O)[C@H](O)c3ccccc3)C(=O)N12	0.914	
CC(C)[N+]1(C)[C@@H]2CC[C@H]1C[C@@H](OC(=O)C(CO)c1ccccc1)C2 (some centres not stated)	0.967	
Cc1ccc(-c2cc(C(F)(F)F)nn2-c2ccc(S(N)(=O)=O)cc2)cc1	1.1	
O=C(O)c1cccc(-c2noc(-c3ccccc3F)n2)c1	0.998	
Nc1ccc(S(=O)(=O)Nc2nccs2)cc1	1.09 ± 0.023	
CN[C@H]1CC[C@@H](c2ccc(Cl)c(Cl)c2)c2ccccc21	1.08	
CC[C@H]1OC(=O)[C@H](C)[C@@H](O[C@H]2C[C@@](C)(OC)[C@@H](O)[C@H](C)O2)[C@H](C)[C@@H](O[C@@H]2O[C@H](C)C[C@H](N(C)C)[C@H]2O)[C@](C)(O)C[C@@H](C)CN(C)[C@H](C)[C@@H](O)[C@]1(C)O	1.05 and 1.02	
CN1CCc2nc(C(=O)N[C@@H]3C[C@@H](C(=O)N(C)C)CC[C@@H]3NC(=O)C(=O)Nc3ccc(Cl)cn3)sc2C1	1.41	
NC[C@H]1O[C@H](O[C@H]2[C@H](O)[C@@H](O[C@H]3O[C@H](CO)[C@@H](O)[C@H](N)[C@H]3O)[C@H](N)C[C@@H]2N)[C@H](N)C[C@@H]1O		1.09 ± 0.066
O=C(/C=C/c1cccc(S(=O)(=O)Nc2ccccc2)c1)NO	0.259	
CCOC(=O)/C=C(C)/C=C/C=C(C)/C=C/c1c(C)cc(OC)c(C)c1C	1.36	
CC(C)(C)c1cc(NC(=O)Nc2ccc(-c3cn4c(n3)sc3cc(OCCN5CCOCC5)ccc34)cc2)no1	0.65	
COc1cc2nc(N3CCN(C(=O)C4COc5ccccc5O4)CC3)nc(N)c2cc1OC (configuration not stated)	1.07	
